This experiment can be described thus: qHTS Assay for Lipid Storage Modulators in Drosophila S3 Cells.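 On cell number change: cells counted by Cell Tracker Red CMTPX staining in the red channel.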 The note with it: BODIPY lipid droplet fluorescence, 18-24 h; for cell number change: measured here: cell count max response, cells fed with added oleic acid. The method in brief: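 Drosophila S3 cells loaded with oleic acid (400 uM, as added) and compounds at several concentrations; lipid droplets imaged by 488-nm laser-scanning cytometry, 500–530 nm intensity and object ratio to cell channel. Percent activity normalized to 20 uM Triacsin C.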
(In qHTS, concentration-response curves come from the screen itself.)

The mark [1] stands for this setting: measured here: cell number channel AC50, cells fed with added oleic acid.
The mark [2] stands for this setting: measured here: lipid fluorescence (Fed channel) AC50, cells fed with added oleic acid.

A word on the AC50: it is the concentration giving half of the maximal activity seen. High values mean weaker potency, low ones greater potency.

The list shows a part of the results. Shown are side measurements of this screen, not its main read-out; they come without a call. The list favours compounds with an active or inconclusive main result. Words in brackets tell the shape of the fitted curve; partial curves, single points and poor fits give uncertain potencies. Where a SMILES comes first, the peptide text is derived from it. [ ]: non-standard residue; d: D form. The star is where a group is joined. Tic = O=C(O)[C@@H]1Cc2ccccc2CN1; Boc = CC(C)(C)OC(=O)*

For the molecule `CCCc1cc(=O)[nH]c(SCC(=O)c2cc(C)n(CCOC)c2C)n1`, the cell number change came to 3.63%.

In the case of `O=C(CCc1n[nH]c(=O)[nH]c1=O)N1CCCCC1`, the cell number change is -98%. The AC50 under setting [1] was 29.1 µM [falling, partial curve, poor fit]. Also, the AC50 under setting [2] was 23.1 µM [falling, partial curve]. On to `COc1ccccc1-n1c(Cc2cccs2)n[nH]c1=S`, for which the cell number change is 7.23%. Moreover, the AC50 under setting [2] was 1.3 µM [falling, partial curve].

As to `Cc1cc(C(=O)COc2cccc(-n3cnnn3)c2)c(C)n1-c1ccccc1`, the cell number change was -22.4%. In addition, the concentration at half-maximal activity (AC50) under setting [2] was 23.1 µM [falling, single point]. For the molecule `Cc1ccc(NC(=O)c2ccc([N+](=O)[O-])o2)cc1C`, the cell number change is -65.3%. Also, the half-maximal activity concentration (AC50) under setting [1] was 29.1 µM [falling, single point]. `CC(C)(C)OC(=O)N1Cc2ccccc2C[C@H]1C(=O)N1CCC[C@H]1C(=O)O` (Boc-[Tic]-Pro-OH): the cell number change was -14.7%. Under setting [2], the AC50 is 0.651 µM [falling, full curve, poor fit]. Regarding `Cc1ccc(S(=O)(=O)c2nc(Nc3nccs3)sc2Cl)cc1`, the cell number change was determined as 0.533%.

`O=C(CNC(=O)c1cccs1)NCC(=O)OCc1c(F)cccc1Cl`: the cell number change amounted to 105%. In addition, under setting [1], the half-maximal activity concentration (AC50) was 16.4 µM [rising, partial curve].

Regarding `NC(=O)c1ccc(-n2nnnc2SCC(=O)c2ccc(O)c(O)c2)cc1`, under setting [1], the AC50 is 0.13 µM [rising, full curve, poor fit]. As to `O=C(OCc1nnc(-c2ccccc2)o1)c1ccc(Cl)cc1`, the AC50 under setting [2] is 0.116 µM [rising, full curve, poor fit]. As for `Cc1ccn2c(=O)nc(SCC(=O)NCc3ccco3)nc2c1`, the cell number change is -42.7%. The AC50 under setting [1] is 0.731 µM [falling, full curve, poor fit]. In addition, the concentration at half-maximal activity (AC50) under setting [2] was 2.31 µM [falling, partial curve].

Consider `CCC(C)[C@@H](CN)NCC1(c2ccccc2)CC1` (stereo not given in full), for which the cell number change is -16.4%. In addition, under setting [1], the AC50 is 0.731 µM [falling, single point]. On to `CCn1c(NCc2ccc(N(C)C)cc2)nc2ccccc21`, for which, under setting [1], the AC50 was 0.58 µM [rising, single point]. In the case of `O=C(C[n+]1ccc(C(=O)NCCCO)cc1)c1cccc(Br)c1`, the cell number change is 6.22%. Also, the AC50 under setting [2] was 0.0058 µM [falling, full curve, poor fit].

In the case of `O=C(CSc1ccc(Cl)cc1)N/N=C/c1ccc([N+](=O)[O-])o1`, the cell number change is -40%. Also, the AC50 under setting [1] was 29.1 µM [falling, single point].

In the case of `O=C(N/N=C/c1cc(Cl)cc([N+](=O)[O-])c1O)C1CC1`, the cell number change is -48.3%. Further, the AC50 under setting [1] was 5.8 µM [falling, full curve]. Besides, under setting [2], the AC50 was 18.4 µM [falling, partial curve]. As for `Cc1ccc(NC(=O)CN2C(=O)N/C(=C/c3ccc4c(c3)OCCO4)C2=O)cc1`, the cell number change was found to be 426%. Take `O=C(c1nc2ccccc2[nH]1)c1ccccc1[N+](=O)[O-]`: the cell number change was 23.4%. The AC50 under setting [2] is 0.82 µM [rising, full curve, poor fit]. With `NS(=O)(=O)OCCCc1ccccc1`, the cell number change came to 28.5%. For the same molecule, the AC50 under setting [2] was 11.6 µM [rising, partial curve]. With `Cc1ccc(CS(=O)(=O)c2cn(CC(=O)N3CCOCC3)c3ccccc23)cc1`, the cell number change is -19.9%. On to `O=C(Nc1ccccc1)c1nc[nH]c1C(=O)NCc1ccccc1`, for which the cell number change is -78.2%. Also, under setting [1], the AC50 is 13 µM [falling, single point]. For the molecule `O=C(COC(=O)CCc1nc2ccccc2c(=O)[nH]1)Nc1ccc(N2CCOCC2)cc1`, the cell number change is -44.1%. For the same molecule, the AC50 under setting [1] was 29.1 µM [falling, single point]. For the molecule `COc1ccc(N=C(N)N=C(N)N)c(OC)c1`, the cell number change was -3.5%. The AC50 under setting [2] is 0.231 µM [falling, full curve, poor fit]. With `O=C(O)c1cccnc1SCC(=O)N1CCCCCC1`, the cell number change is -24.7%. Besides, under setting [2], the AC50 is 20.6 µM [falling, single point]. On to `CCOC(=O)C(C)Sc1nc2c(c(=O)[nH]c(=O)n2C)n1C/C=C(/C)Cl` (stereo not given), for which the cell number change was -2.51%.

Consider `CC1CC(C)CN(S(=O)(=O)c2ccc(C(=O)N3CCOCC3)cc2)C1` (stereo not given), for which the cell number change is 21.9%. Moreover, the AC50 under setting [2] is 6.51 µM [rising, full curve, poor fit]. Consider `O=C(O)/C=C/C(=O)NCc1ccccc1`, for which the cell number change turned out to be 12.4%. Besides, the AC50 under setting [2] is 0.146 µM [rising, full curve, poor fit]. Regarding `CCn1c(SCC(=O)NC2CCS(=O)(=O)C2)nnc1-c1ccccc1` (stereo not given), the cell number change was -20.6%. Further, the AC50 under setting [1] was 0.58 µM [falling, full curve, poor fit].

For the molecule `N#CCc1nn(-c2ccc(Cl)cc2)c(N)c1C#N`, the cell number change amounted to 11.9%. The concentration at half-maximal activity (AC50) under setting [2] is 5.8 µM [rising, full curve, poor fit].

Regarding `COc1ccc(CCN(C(=O)c2cccc(F)c2)C2CC(=O)N(c3ccc(OC)cc3)C2=O)cc1` (stereo not given), the cell number change worked out at 121%. The AC50 under setting [1] is 18.4 µM [rising, single point].

Consider `O=C(CNC(=O)c1ccc(Cl)cc1Cl)Nc1ccc(F)cc1`, for which the cell number change amounted to 4.42%. Besides, the AC50 under setting [2] is 2.31 µM [rising, partial curve].

Regarding `CN(C)c1ccc(C(=O)OCc2ccccc2)cc1`, the cell number change turned out to be 57.1%. The AC50 under setting [1] is 3.66 µM [rising, full curve]. Also, the AC50 under setting [2] was 13 µM [rising, partial curve].

Take `COc1ccc(C(=O)Oc2cc(C)c(CN3CCOCC3)cc2C)cc1OC`: the cell number change was determined as 9.46%. The AC50 under setting [2] is 0.58 µM [falling, single point]. Take `O=C(O)C1CCCCC1C(=O)Nc1ccc(F)cc1F` (stereo not given): the cell number change stood at 33%. Further, the AC50 under setting [1] was 29.1 µM [rising, single point]. Also, the AC50 under setting [2] was 29.1 µM [rising, single point]. Take `O=C(NNS(=O)(=O)c1ccccc1)c1cc2cc3ccccc3nc2s1`: the cell number change was found to be 13.2%. Further, under setting [2], the AC50 is 29.1 µM [rising, single point].

Take `Cn1c(=O)n(CC(=O)NCc2cccnc2)c2ccccc21`: the cell number change is -16.4%. Besides, the AC50 under setting [1] is 0.092 µM [falling, full curve, poor fit].

Regarding `COc1ccc(-n2cnc3cc(C(=O)NCCN4CCOCC4)ccc32)cc1`, the cell number change was -10.9%. For the same molecule, the AC50 under setting [2] is 1.64 µM [falling, single point].

For the molecule `O=C(c1nn(-c2ccccc2)c(=O)c2ccccc12)N1CCN(c2ncccn2)CC1`, the cell number change was -11%. The AC50 under setting [2] is 0.0184 µM [falling, full curve, poor fit]. Turning to `CCS(=O)c1ccccc1C(=O)OCC(=O)Nc1cccc(S(=O)(=O)N2CCCCC2)c1` (stereo not given), the cell number change was -21%. For the same molecule, the AC50 under setting [2] was 29.1 µM [falling, single point].

Values taken from PubChem BioAssay AID2685 (National Center for Advancing Translational Sciences (NCATS), 2010).
